{"sequences": {"note": "Sequences of proteins named here, by UniProt entry; tags and fusion partners are left off. Residues count along the entry.", "UniProt P16070, 20-178": "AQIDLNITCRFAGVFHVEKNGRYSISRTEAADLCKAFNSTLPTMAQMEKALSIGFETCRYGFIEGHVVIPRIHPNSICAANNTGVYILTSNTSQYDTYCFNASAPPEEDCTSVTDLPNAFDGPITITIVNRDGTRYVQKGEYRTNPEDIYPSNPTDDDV", "UniProt P16070, 21-649": "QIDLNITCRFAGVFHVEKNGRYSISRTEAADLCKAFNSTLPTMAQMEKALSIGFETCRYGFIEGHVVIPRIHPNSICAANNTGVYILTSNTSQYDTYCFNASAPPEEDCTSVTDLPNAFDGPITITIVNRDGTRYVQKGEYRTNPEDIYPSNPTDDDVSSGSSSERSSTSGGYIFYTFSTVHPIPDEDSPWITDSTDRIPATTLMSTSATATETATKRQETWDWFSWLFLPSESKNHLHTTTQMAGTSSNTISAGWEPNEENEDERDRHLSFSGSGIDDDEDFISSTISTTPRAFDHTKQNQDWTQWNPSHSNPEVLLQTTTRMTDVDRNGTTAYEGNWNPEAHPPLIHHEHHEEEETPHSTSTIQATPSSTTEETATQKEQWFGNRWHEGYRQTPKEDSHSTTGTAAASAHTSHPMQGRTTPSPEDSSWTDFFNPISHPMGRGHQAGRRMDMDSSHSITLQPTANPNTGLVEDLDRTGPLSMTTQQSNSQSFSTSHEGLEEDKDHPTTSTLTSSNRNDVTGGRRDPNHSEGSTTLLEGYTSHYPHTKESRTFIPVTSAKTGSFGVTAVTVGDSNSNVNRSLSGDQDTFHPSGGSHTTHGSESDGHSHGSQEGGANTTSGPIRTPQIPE"}, "source": "patent US20140100120", "key": {"[1]": {"molecular_target": "CD44 hyaluronic acid binding domain (CD44-HABD) (UniProt P16070)", "test": "filter binding", "conditions": "fully monothioate PS, 20 mM Tris pH 8.0, 150 mM NaCl, RT, purified recombinant protein, protein details: expressed from pET19b, refolded, label: biotin, single-stranded DNA"}, "[2]": {"molecular_target": "CD44 on IGROV ovarian cancer cells (Homo sapiens) (UniProt P16070)", "test": "flow cytometry", "conditions": "37 C, 2 h, protein on the cell surface, label: fluorescent dye, single-stranded DNA"}, "[3]": {"molecular_target": "CD44 on IGROV ovarian cancer cells (Homo sapiens) (UniProt P16070)", "test": "binding assay", "conditions": "X=amino modifier C2 dT [4,15]; fluorescence imaging of IGROV cells, same pattern as anti-CD44 antibody; protein on the cell surface; label: Cy3; single-stranded DNA; letters built from the parent sequence and the stated change; variant of Motif 5 phospho NH2"}, "[4]": {"conditions": "X=amino-dU [n positions 23 = modified dU]"}}, "note": "pKd: −log10 of the molar value. For some of these results: Results from cells or extracts need not show a direct contact. For some of these results: For at least one entry, the source does not settle the construct or the ends of the probe.", "data": [{"sequence": "GAGATTCATCACGCGCATAGTCTGCAGATCTGCAAGGGAAAGATAGACACAGCGACTATGCGATGATGTCTTC [NH2 XA13]", "values": [{"measurement": "pKd", "setting": "[1]; [4]", "value": 5.86}]}, {"sequence": "GAGATTCATCACGCGCATAGTCTTAAGATCTGCAATGTAACCATAGACACAGCGACTATGCGATGATGTCTTC [ADDA XA9]", "values": [{"measurement": "pKd", "setting": "[1]; X=ADDA-dU [n positions 23,24,36 = modified dU], variant of NH2 XA9", "value": 6.26}]}, {"sequence": "GAGATTCATCACGCGCATAGTCTTGGGGCCTGCAAGACGTCCATAGACACAGCGACTATGCGATGATGTCTTC [ADDA XA4]", "values": [{"measurement": "pKd", "setting": "[1]; X=ADDA-dU [n positions 40 = modified dU], variant of NH2 XA4", "value": 6.99}]}, {"sequence": "GAGATTCATCACGCGCATAGTCTTAAGATCTGTTAGGGAACCAAGACGACAGCGACTATGCGATGATGTCTTC [NH2 XA1]", "values": [{"measurement": "pKd", "setting": "[1]; X=5-(aminoethyl-3-acrylimido)-dU (amino-dU) [n positions 23,24,31,33 = modified dU]", "value": 7.20}]}, {"sequence": "GAGATTCATCACGCGCATAGTCTGCAGATCTGCAAGGGAACCAAGGACACTACGACTATGCGATGATGTCTTC [NH2 XA2]", "values": [{"measurement": "pKd", "setting": "[1]; [4]", "value": 7.26}]}, {"sequence": "GAGATTCATCACGCGCATAGTCTGCAGATCTGCAAGGGAAAGATAGACACAGCGACTATGCGATGATGTCTTC [ADDA XA13]", "values": [{"measurement": "pKd", "setting": "[1]; X=ADDA-dU [n positions 23 = modified dU], variant of NH2 XA13", "value": 6.51}]}, {"sequence": "GCCTGCAAGACGTCCATAGACAC [Motif 3 ADDA adduct, fluorescent]", "values": [{"measurement": "binding result", "setting": "[2]; X=ADDA-dU [n positions 13 = modified dU], improved over amino form, variant of Motif 3 amino form, fluorescent", "value": "binds"}]}, {"sequence": "GAGATTCATCACGCGCATAGTCTTAAGACGCATTAATGAACCAAGGACGTGACGACTATGCGATGATGTCTTC [NH2 XA7]", "values": [{"measurement": "pKd", "setting": "[1]; X=amino-dU [n positions 23,24,33,37 = modified dU]", "value": 6.51}]}, {"sequence": "GAGATTCATCACGCGCATAGTCTTAAGGCCTGTTAAATGATATCCACTACGACTATGCGATGATGTCTTC [NH2 XA12]", "values": [{"measurement": "pKd", "setting": "[1]; X=amino-dU [n positions 23,24,31,33,38 = modified dU]", "value": 6.02}]}, {"sequence": "GAGATTCATCACGCGCATAGTCTTAAGATCTGTTAGGGAACCAAGACGACAGCGACTATGCGATGATGTCTTC [ADDA XA1]", "values": [{"measurement": "pKd", "setting": "[1]; X=ADDA-dU [n positions 23,24,31,33 = modified dU], variant of NH2 XA1", "value": 6.96}]}, {"sequence": "GAGATTCATCACGCGCATAGTCTGCAGATCTGCAAGGGAACCAAGGACACTACGACTATGCGATGATGTCTTC [ADDA XA2]", "values": [{"measurement": "pKd", "setting": "[1]; X=ADDA-dU [n positions 23 = modified dU], variant of NH2 XA2", "value": 7.11}]}, {"sequence": "GAGATTCATCACGCGCATAGTCTGCAGATACAGTAAACGTCCATAGACACAGCGACTATGCGATGATGTCTTC [NH2 XA5]", "values": [{"measurement": "pKd", "setting": "[1]; X=amino-dU [n positions 23,29,40 = modified dU], same value printed as XA4", "value": 6.86}]}, {"sequence": "GAGATTCATCACGCGCATAGTCTTGGGGCCTGCAAGACGACCTAAACGATGACGACTATGCGATGATGTCTTC [NH2 XA6]", "values": [{"measurement": "pKd", "setting": "[1]; X=amino-dU [n positions 43,50 = modified dU]", "value": 6.67}]}, {"sequence": "GAGATTCATCACGCGCATAGTCTTAAGATCTGCAATGTAACCATAGACACAGCGACTATGCGATGATGTCTTC [NH2 XA9]", "values": [{"measurement": "pKd", "setting": "[1]; X=amino-dU [n positions 23,24,36 = modified dU]", "value": 6.32}]}, {"sequence": "GAGATTCATCACGCGCATAGTCTTGGGACGTAAGTAATGGGGGACATGACGACTATGCGATGATGTCTTC [NH2 XA11]", "values": [{"measurement": "pKd", "setting": "[1]; X=amino-dU [n positions 38,47 = modified dU]", "value": 6.07}]}, {"sequence": "GCCTGCAAGACGTCCATAGACAC [Motif 3 amino form, fluorescent]", "values": [{"measurement": "binding result", "setting": "[2]; X=amino modifier C2 dT [13], letters built from the parent sequence and the stated change, variant of Motif 3 phospho NH2", "value": "binds"}]}, {"sequence": "AGATACAGTAAACGTCCATAGACAC [Motif 5, Cy3]", "values": [{"measurement": "binding result", "setting": "[3]", "value": "binds"}]}, {"sequence": "GAGATTCATCACGCGCATAGTCTTGGGACGTAAGTAATGGGGGACATGACGACTATGCGATGATGTCTTC [ADDA XA11]", "values": [{"measurement": "pKd", "setting": "[1]; X=ADDA-dU [n positions 38,47 = modified dU], variant of NH2 XA11", "value": 5.96}]}, {"sequence": "GAGATTCATCACGCGCATAGTCTTAAGACGCATTAATGAACCAAGGACGTGACGACTATGCGATGATGTCTTC [ADDA XA7]", "values": [{"measurement": "pKd", "setting": "[1]; X=ADDA-dU [n positions 23,24,33,37 = modified dU], variant of NH2 XA7", "value": 6.93}]}, {"sequence": "GAGATTCATCACGCGCATAGTCTTGGGGCCCAGTAGGTAACCGGGGACAGCGACTATGCGATGATGTCTTC [NH2 XA10]", "values": [{"measurement": "pKd", "setting": "[1]; no X in sequence", "value": 6.35}]}, {"sequence": "GAGATTCATCACGCGCATAGTCTTAAGGCCTGTTAAATGATATCCACTACGACTATGCGATGATGTCTTC [ADDA XA12]", "values": [{"measurement": "pKd", "setting": "[1]; X=ADDA-dU [n positions 23,24,31,33,38 = modified dU], variant of NH2 XA12", "value": 6.06}]}, {"sequence": "GAGATTCATCACGCGCATAGTCCCAAGGCCTGCAAGGGAACCAAGTCCATTACGACTATGCGATGATGTCTTC [ADDA XA3]", "values": [{"measurement": "pKd", "setting": "[1]; X=ADDA-dU [n positions 50 = modified dU], variant of NH2 XA3", "value": 6.86}]}, {"sequence": "GAGATTCATCACGCGCATAGTCCCAAGGCCTGCAAGGGAACCAAGTCCATTACGACTATGCGATGATGTCTTC [NH2 XA3]", "values": [{"measurement": "pKd", "setting": "[1]; X=amino-dU [n positions 50 = modified dU]", "value": 6.96}]}, {"sequence": "GAGATTCATCACGCGCATAGTCCCAAGATCTGTAAGGTATCCGGGGACTGCGACTATGCGATGATGTCTTC [NH2 XA8]", "values": [{"measurement": "pKd", "setting": "[1]; X=amino-dU [n positions 31,33,40,49 = modified dU]", "value": 6.33}]}, {"sequence": "GAGATTCATCACGCGCATAGTCTTGGGGCCTGCAAGACGACCTAAACGATGACGACTATGCGATGATGTCTTC [ADDA XA6]", "values": [{"measurement": "pKd", "setting": "[1]; X=ADDA-dU [n positions 43,50 = modified dU], variant of NH2 XA6", "value": 6.82}]}, {"sequence": "GAGATTCATCACGCGCATAGTCTGCAGATACAGTAAACGTCCATAGACACAGCGACTATGCGATGATGTCTTC [ADDA XA5]", "values": [{"measurement": "pKd", "setting": "[1]; X=ADDA-dU [n positions 23,29,40 = modified dU], variant of NH2 XA5", "value": 6.90}]}, {"sequence": "GAGATTCATCACGCGCATAGTCTTGGGGCCTGCAAGACGTCCATAGACACAGCGACTATGCGATGATGTCTTC [NH2 XA4]", "values": [{"measurement": "pKd", "setting": "[1]; X=amino-dU [n positions 40 = modified dU]", "value": 6.86}]}, {"sequence": "GAGATTCATCACGCGCATAGTCCCAAGATCTGTAAGGTATCCGGGGACTGCGACTATGCGATGATGTCTTC [ADDA XA8]", "values": [{"measurement": "pKd", "setting": "[1]; X=ADDA-dU [n positions 31,33,40,49 = modified dU], variant of NH2 XA8", "value": 6.56}]}]}
